For some assays here: For expression read-outs the peptide stands for its source gene, whose mRNA was measured; the gene is not named for every peptide.
Tests used:
Set-up in all cases: species or system human
[1] = Identification and label-free relative LC-MS quantitation of HLA-presented peptides on tumor and normal tissue samples (XPRESIDENT presentation profiles); settings: for Entities of particular interest: entities where the peptide was over-presented on cancer samples compared to normal tissues; for Additional entities of particular interest (presentation of selected peptides across entities): tumor entities on which the HLA-presented peptide was found, entity abbreviations defined in the title of Table 4B
[2] = system: source genes of the peptides (mRNA) in tumor and normal tissue; test: Expression profiling of source genes by Affymetrix microarrays (target coverage); settings: over-expression = more than 1.5-fold higher expression on tumor vs. normal tissue with highest expression, gene with minimal coverage decisive; for Target coverage for source genes of selected peptides, BPHI/PCA (%): BPHI/PCA (prostate cancer) samples; for Target coverage for source genes of selected peptides, CRC (%): CRC tumor samples; for Target coverage for source genes of selected peptides, GB (%): GB tumor samples; for Target coverage for source genes of selected peptides, GC (%): GC tumor samples; for Target coverage for source genes of selected peptides, HCC (%): HCC tumor samples; for Target coverage for source genes of selected peptides, NSCLC (%): NSCLC tumor samples; for Target coverage for source genes of selected peptides, PC (%): PC tumor samples; for Target coverage for source genes of selected peptides, RCC (%): RCC tumor samples
[3] = system: source genes of the peptides (mRNA) in tumor and normal tissue; test: Expression profiling of source genes by RNAseq (target coverage); settings: share of tumors with more than 1.5-fold over-expression vs highest-expressing relevant normal tissue; for Target coverage for source genes, AML (%): acute myeloid leukemia; for Target coverage for source genes, BRCA (%): breast cancer; for Target coverage for source genes, CLL (%): chronic leukemia (CLL); for Target coverage for source genes, OSCAR (%): esophageal cancer incl. gastric-oesophageal junction; for Target coverage for source genes, GBC_CCC (%): gallbladder adenocarcinoma and cholangiocarcinoma; for Target coverage for source genes, MEL (%): melanoma; for Target coverage for source genes, NHL (%): non-Hodgkin lymphoma; for Target coverage for source genes, OC (%): ovarian cancer; for Target coverage for source genes, SCLC (%): small cell lung cancer; for Target coverage for source genes, UBC (%): urinary bladder cancer; for Target coverage for source genes, UTC (%): uterine cancer

Row | Substance | Entities of particular interest [1] | Additional entities of particular interest (presentation of selected peptides across entities) [1] | Target coverage for source genes of selected peptides, BPHI/PCA (%) [2] | Target coverage for source genes of selected peptides, CRC (%) [2] | Target coverage for source genes of selected peptides, GB (%) [2] | Target coverage for source genes of selected peptides, GC (%) [2] | Target coverage for source genes of selected peptides, HCC (%) [2] | Target coverage for source genes of selected peptides, NSCLC (%) [2] | Target coverage for source genes of selected peptides, PC (%) [2] | Target coverage for source genes of selected peptides, RCC (%) [2] | Target coverage for source genes, AML (%) [3] | Target coverage for source genes, BRCA (%) [3] | Target coverage for source genes, CLL (%) [3] | Target coverage for source genes, OSCAR (%) [3] | Target coverage for source genes, GBC_CCC (%) [3] | Target coverage for source genes, MEL (%) [3] | Target coverage for source genes, OC (%) [3] | Target coverage for source genes, SCLC (%) [3] | Target coverage for source genes, UBC (%) [3] | Target coverage for source genes, UTC (%) [3] | other results
1 | 1: peptide found in CENPE (gene looked up) (KLQEKIQEL; listed as Homo sapiens) [compound 1] | GB, GC, NSCLC, HCC, OC, RCC, CRC, PC, OSCAR | MEL, AML, NHL | I (<19% over-expression = I) | II (20-49% = II) | III (50-69% = III) | II (20-49% = II) | I (<19% over-expression = I) | II (20-49% = II) | I (<19% over-expression = I) | I (<19% over-expression = I) | I (<19% over-expression = I) | I (<19% over-expression = I) | I (<19% over-expression = I) | I (<19% over-expression = I) | I (<19% over-expression = I) | I (<19% over-expression = I) | I (<19% over-expression = I) | I (<19% over-expression = I) | I (<19% over-expression = I) | I (<19% over-expression = I) | Target coverage for source genes, NHL (%) [3]: I (<19% over-expression = I)
2 | 10: peptide found in KIF15 (gene looked up) (QLIEKNWLL; listed as Homo sapiens) [compound 10] | NSCLC, OC, CRC, PC, HCC, CLL, OSCAR | SCLC, UBC, UTC, BRCA, GBC_CCC, MEL, AML, NHL | I (<19% over-expression = I) | IV (>70% = IV) | IV (>70% = IV) | IV (>70% = IV) | II (20-49% = II) | III (50-69% = III) | II (20-49% = II) | I (<19% over-expression = I) | I (<19% over-expression = I) | I (<19% over-expression = I) | I (<19% over-expression = I) | I (<19% over-expression = I) | I (<19% over-expression = I) | I (<19% over-expression = I) | I (<19% over-expression = I) | II (20-49% = II) | I (<19% over-expression = I) | I (<19% over-expression = I) | Target coverage for source genes, NHL (%) [3]: II (20-49% = II)
3 | 39: peptide found in PRIM2 (gene looked up) (YLEDGFAYV; listed as Homo sapiens) [compound 39] | GB, NSCLC, HCC, PC | CLL, UBC, UTC, MEL, NHL | IV (>70% = IV) | IV (>70% = IV) | II (20-49% = II) | IV (>70% = IV) | I (<19% over-expression = I) | III (50-69% = III) | II (20-49% = II) | I (<19% over-expression = I) | I (<19% over-expression = I) | II (20-49% = II) | I (<19% over-expression = I) | I (<19% over-expression = I) | – | II (20-49% = II) | III (50-69% = III) | III (50-69% = III) | I (<19% over-expression = I) | I (<19% over-expression = I) | –
4 | 41: peptide found in NCAPG (gene looked up) (IVTEIISEI; listed as Homo sapiens) [compound 41] | – | CLL, SCLC, UTC, GBC_CCC, AML, NHL | I (<19% over-expression = I) | IV (>70% = IV) | III (50-69% = III) | III (50-69% = III) | I (<19% over-expression = I) | III (50-69% = III) | I (<19% over-expression = I) | I (<19% over-expression = I) | I (<19% over-expression = I) | I (<19% over-expression = I) | I (<19% over-expression = I) | I (<19% over-expression = I) | I (<19% over-expression = I) | – | I (<19% over-expression = I) | II (20-49% = II) | I (<19% over-expression = I) | I (<19% over-expression = I) | Target coverage for source genes, NHL (%) [3]: I (<19% over-expression = I)
5 | 234: peptide found in NCAPG (gene looked up) (VLLNEILEQV; listed as Homo sapiens) [compound 234] | GC, NSCLC, HCC, OC, MEL, RCC, CRC, PC, OSCAR | CLL, SCLC, UBC, UTC, BRCA, AML, NHL | I (<19% over-expression = I) | IV (>70% = IV) | III (50-69% = III) | III (50-69% = III) | I (<19% over-expression = I) | III (50-69% = III) | I (<19% over-expression = I) | I (<19% over-expression = I) | I (<19% over-expression = I) | I (<19% over-expression = I) | I (<19% over-expression = I) | I (<19% over-expression = I) | I (<19% over-expression = I) | I (<19% over-expression = I) | I (<19% over-expression = I) | III (50-69% = III) | I (<19% over-expression = I) | I (<19% over-expression = I) | Target coverage for source genes, NHL (%) [3]: I (<19% over-expression = I)
